Reference: the supplement of paper PMC4604168 (melanoma cell lines)
The list shows a part of the results. Single values are uncertain, as repeats are few or missing.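 Imaging used 1,536-well plates; nuclei positive for cleaved PARP by antibody were divided by total DNA-stained nuclei to yield the apoptosis fraction. Doses for screening kept most cells viable, and cell lines differ markedly in resting and induced cleaved-PARP levels.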

System: LOXIMVI
Experiment: cleaved PARP positive nuclei fraction relative to DMSO control; melanoma cells; higher = more apoptosis
Settings: library dose: low library concentration; 72 h

SMILES | cleaved PARP positive nuclei fraction
COc1ccc(COc2ccc(Cc3cnc(N)nc3N)cc2OC)cc1 + C/C(O)=C(\C#N)C(=O)Nc1cc(Br)ccc1Br [LFM-A13] (first compound 1 µM, partner dose 2 µM) | 96.5%
O=C(Oc1ccc([N+](=O)[O-])cc1)N1CCC(C(O)(c2ccc3c(c2)OCO3)c2ccc3c(c2)OCO3)CC1 + CCCCCCCCCCCC1=C(O)C(=O)C=C(O)C1=O [Embelin] (first compound 1 µM, partner dose 1.2 µM) | 74.2%
COc1cc(N2CCC(N3CCN(C)CC3)CC2)ccc1Nc1ncc(Cl)c(Nc2ccccc2S(=O)(=O)C(C)C)n1 + O=C(Oc1ccc([N+](=O)[O-])cc1)N1CCC(C(O)(c2ccc3c(c2)OCO3)c2ccc3c(c2)OCO3)CC1 [JZL184] (first compound 0.08 µM, partner dose 1 µM) | 54.3%
O=C(Nc1ccccc1)c1cc([N+](=O)[O-])ccc1Cl + O=C(Oc1ccc([N+](=O)[O-])cc1)N1CCC(C(O)(c2ccc3c(c2)OCO3)c2ccc3c(c2)OCO3)CC1 [JZL184] (first compound 2 µM, partner dose 1 µM) | 77.4%
COC(=O)c1sccc1S(=O)(=O)Nc1ccc(Nc2ccccc2)cc1OC + C/C(O)=C(\C#N)C(=O)Nc1cc(Br)ccc1Br [LFM-A13] (first compound 1 µM, partner dose 2 µM) | 24.1%
O=C(Oc1ccc([N+](=O)[O-])cc1)N1CCC(C(O)(c2ccc3c(c2)OCO3)c2ccc3c(c2)OCO3)CC1 + CC(C)CCN1c2nc(Nc3cc(F)c(O)c(F)c3)ncc2N(C)C(=O)C1C [BID1870] (first compound 1 µM, partner dose 0.2 µM) | 52.4%
